Measured values from publication PMC7070046.
No constants are given. Whether binding was seen depends on the method and setting. Binding seen in cells or lysates may run through a third protein. These calls come from enrichment with a bait or labelling near it, and not all partners need be listed. Tags and fused reporters may be left off the sequences shown.

By UniProt entry, the sequences of proteins in these tests, tags left out.
UniProt O95271: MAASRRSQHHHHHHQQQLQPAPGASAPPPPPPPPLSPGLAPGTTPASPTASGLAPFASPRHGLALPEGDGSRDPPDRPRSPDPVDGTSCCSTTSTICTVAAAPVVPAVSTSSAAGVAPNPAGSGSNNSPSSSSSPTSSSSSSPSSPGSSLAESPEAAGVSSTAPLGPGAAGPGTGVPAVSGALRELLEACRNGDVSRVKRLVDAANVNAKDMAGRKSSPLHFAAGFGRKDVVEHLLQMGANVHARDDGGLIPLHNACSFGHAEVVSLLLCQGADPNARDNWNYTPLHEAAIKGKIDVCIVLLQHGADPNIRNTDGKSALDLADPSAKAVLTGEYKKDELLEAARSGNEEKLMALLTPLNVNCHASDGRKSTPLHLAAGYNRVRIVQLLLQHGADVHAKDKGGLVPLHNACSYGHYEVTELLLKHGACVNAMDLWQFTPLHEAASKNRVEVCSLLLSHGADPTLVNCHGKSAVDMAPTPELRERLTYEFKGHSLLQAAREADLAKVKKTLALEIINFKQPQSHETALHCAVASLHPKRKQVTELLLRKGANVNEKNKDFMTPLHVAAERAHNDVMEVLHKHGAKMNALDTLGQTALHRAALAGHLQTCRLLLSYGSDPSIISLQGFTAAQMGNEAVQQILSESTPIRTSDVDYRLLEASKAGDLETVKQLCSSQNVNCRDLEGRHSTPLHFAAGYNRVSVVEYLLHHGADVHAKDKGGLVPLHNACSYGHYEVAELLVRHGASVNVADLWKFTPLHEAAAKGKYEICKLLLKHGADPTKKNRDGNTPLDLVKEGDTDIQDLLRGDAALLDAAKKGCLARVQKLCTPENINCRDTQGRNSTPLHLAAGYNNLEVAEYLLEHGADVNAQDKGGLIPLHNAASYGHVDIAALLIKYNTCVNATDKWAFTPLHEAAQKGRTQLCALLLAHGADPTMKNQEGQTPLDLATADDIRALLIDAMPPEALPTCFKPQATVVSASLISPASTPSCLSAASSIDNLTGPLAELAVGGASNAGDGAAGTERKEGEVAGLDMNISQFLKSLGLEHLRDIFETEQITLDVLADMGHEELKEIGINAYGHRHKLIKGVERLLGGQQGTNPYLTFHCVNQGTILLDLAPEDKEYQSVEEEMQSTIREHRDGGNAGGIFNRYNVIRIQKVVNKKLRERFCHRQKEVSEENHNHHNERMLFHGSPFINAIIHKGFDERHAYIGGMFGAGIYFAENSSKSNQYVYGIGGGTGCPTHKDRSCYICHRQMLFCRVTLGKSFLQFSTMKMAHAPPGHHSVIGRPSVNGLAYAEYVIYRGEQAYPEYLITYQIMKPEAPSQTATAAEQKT

Molecular target: T1, His-GFP-SSSCA1 (SSSCA1 FL, residues A2-H199) (human) (UniProt O60232)
T1 sequence: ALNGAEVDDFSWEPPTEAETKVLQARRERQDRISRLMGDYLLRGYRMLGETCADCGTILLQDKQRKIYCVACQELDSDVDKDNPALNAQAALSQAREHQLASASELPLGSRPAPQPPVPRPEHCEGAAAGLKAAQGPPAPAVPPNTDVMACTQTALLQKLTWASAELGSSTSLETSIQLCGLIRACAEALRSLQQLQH
Assay: affinity purification with mass spectrometry; tandem-affinity purification (His SpinTrap, then GFP-Trap A beads) of His-GFP-SSSCA1 from lysates of transfected HeLa, SW480 or LNCaP cells, 18 h after transfection; 50 mM HEPES pH 7.4, 150 mM NaCl, 5% glycerol, 0.5% NP40; gel slices, LC-MS/MS

## Tankyrase 1 (TNKS1), endogenous (from UniProt O95271 1-1327) (enzyme)
  binding: binds
